The list shows a part of the results.

Amino acid sequences for entries named in this document (tags omitted).
UniProt Q0JBA9, entry or part of it: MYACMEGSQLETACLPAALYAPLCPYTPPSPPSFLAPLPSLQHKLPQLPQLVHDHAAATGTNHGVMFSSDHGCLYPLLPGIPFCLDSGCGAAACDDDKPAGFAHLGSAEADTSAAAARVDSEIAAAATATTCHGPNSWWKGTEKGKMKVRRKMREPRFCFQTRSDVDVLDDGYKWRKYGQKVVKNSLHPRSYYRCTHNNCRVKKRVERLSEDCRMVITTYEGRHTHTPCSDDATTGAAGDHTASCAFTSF

The test has as its target OsWRKY34 (Oryza sativa, UniProt Q0JBA9 1-250). Briefly: protein-binding microarray (RPBM); PBS, 2% BSA, 51.3 ng/ul salmon testes DNA, 50 uM zinc acetate, 200 nM TF, 25 C, 1 h; high values mean tight binding. Particulars: protein: recombinant; tags: N-terminal polyhistidine and DsRed monomer fusion (pET32a); label: CyDye5-dUTP incorporated in the synthesized complementary strand; 3' TTTTT single-stranded linker to array surface; dsDNA, one strand shown. A digest of the protocol: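 Binding signal is defined as the fluorescence intensity of each feature in arbitrary units, read on an Axon 4000B scanner. Transcription factors with N-terminal polyhistidine and DsRed fusions came from E. coli BL21-CodonPlus and were purified on Ni–NTA. They were incubated at 200 nM for 1 h at 25 °C on a custom Agilent array that had been made double-stranded with Cy5-dUTP, with 50 µM zinc acetate present, and the array was washed.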
“TCCGTATTTTAATGTATGACGCTGTTGACTTTCGACCTACCGGAGTCACCTAGTGCAG”: the binding signal was 13900 fluorescence intensity (a.u.).

As to “GCTACTATCTATACTATTATCAGCGTCACGTGAGCTCGCTCGGAGTCACCTAGTGCAG”, the binding signal was 8120 fluorescence intensity (a.u.).

For “TCGCATATCTTGACTTTTTTACCCTAAAATTTGTGTCTGGCGGAGTCACCTAGTGCAG”, the binding signal is 9200 fluorescence intensity (a.u.).

On to “AATCCACTCCCACCACCAAGCGCGAGCTCGATTATTTTTTCGGAGTCACCTAGTGCAG”, for which the binding signal is 10500 fluorescence intensity (a.u.).

With “CCCCAGCACCAACTTTGGTCCACTCCACATTCCAATCCTCCGGAGTCACCTAGTGCAG”, the binding signal is 10500 fluorescence intensity (a.u.).

In the case of “GCTTCTTCTTGTATGTATACAGCTATCTATATTTTCTTAGCGGAGTCACCTAGTGCAG”, the binding signal is 10200 fluorescence intensity (a.u.).

With “CGCTATGTCAACTGGGCTTTGTTTGGGTTTTGCATTTTCTCGGAGTCACCTAGTGCAG”, the binding signal is 13300 fluorescence intensity (a.u.).

Take “ACGATTTTATCTCATCCGTTTGGCCCTGCTGCTGCTGTGCCGGAGTCACCTAGTGCAG”: the binding signal was 8170 fluorescence intensity (a.u.).

“GATTCATCGCCAGCGTCGCCGTATCTTCCTCGACTACACTCGGAGTCACCTAGTGCAG”: the binding signal is 10300 fluorescence intensity (a.u.).

Consider “TCGCGCGCTTGGCTCTTCTCGATCTCTCTCTCGGCTTCTCCGGAGTCACCTAGTGCAG”, for which the binding signal is 11200 fluorescence intensity (a.u.).

On to “TGCCTGCCTGCCTGCCTCATGTACATATAGCTACCCGAACCGGAGTCACCTAGTGCAG”, for which the binding signal is 8820 fluorescence intensity (a.u.).

Regarding “GGATTTCACAGCTTCTAGCTTCTAATTCATTTTCTGGATTCGGAGTCACCTAGTGCAG”, the binding signal was 10200 fluorescence intensity (a.u.).

Turning to “ACATTGCTGAGACTGTACCACCACCACTGCATGATATACACGGAGTCACCTAGTGCAG”, the binding signal is 10700 fluorescence intensity (a.u.).

Regarding “TAATGGTTTCTACTCGCGCACAACTCCGCTTCTTTTATAACGGAGTCACCTAGTGCAG”, the binding signal is 8280 fluorescence intensity (a.u.).

Consider “TAGCTTCAACCCCAGCATCCCTGACCTTCTTTTCTTCTGTCGGAGTCACCTAGTGCAG”, for which the binding signal was 8770 fluorescence intensity (a.u.).

As for “ACCTACTCTCTTCTCCTGCAGTCCAGCTCTCGGTTCCTTGCGGAGTCACCTAGTGCAG”, the binding signal is 8180 fluorescence intensity (a.u.).

Consider “CGCTAGGATCGCCTTTTTTCCGCTGCTGCTACTTTTGTTTCGGAGTCACCTAGTGCAG”, for which the binding signal was 11100 fluorescence intensity (a.u.).

“TTAGGGCTTTCTCCTCGTGCTCCCTGCGATTGCGCCGCCCCGGAGTCACCTAGTGCAG”: the binding signal is 8270 fluorescence intensity (a.u.).

Turning to “GACCTCGCCGTCGCCGTCGCCGCCGCCGCCGCCGCCATGGCGGAGTCACCTAGTGCAG”, the binding signal is 9900 fluorescence intensity (a.u.).

With “AGGACCCTTATTTAGTAGTATAATTCTTTCCGTCCCAATTCGGAGTCACCTAGTGCAG”, the binding signal is 9400 fluorescence intensity (a.u.).

Consider “CCGGCGCCGTCCTTCACCGCCTAGCTCGATTTGCTTTTCACGGAGTCACCTAGTGCAG”, for which the binding signal is 8410 fluorescence intensity (a.u.).

Take “CACCAAGCAGTCCCCTGTGTTCATCTTCTGAAGTCTGATTCGGAGTCACCTAGTGCAG”: the binding signal was 8360 fluorescence intensity (a.u.).

As to “ATCTTCCTTGTACACACATGCACATCTCTCACTCAACTCACGGAGTCACCTAGTGCAG”, the binding signal is 8710 fluorescence intensity (a.u.).

On to “ATTTGCTTTTCTTCTTAGTTCTTACTTCCATTGCTTTAGGCGGAGTCACCTAGTGCAG”, for which the binding signal was 9000 fluorescence intensity (a.u.).

Take “TACACCGGTAAATTCGGTCATTTCTCTCGGTTAACCGAACCGGAGTCACCTAGTGCAG”: the binding signal was 9790 fluorescence intensity (a.u.).

Regarding “TTGGTGTGCATGTAGCAGGAGGGGCTGATACATTTATGATCGGAGTCACCTAGTGCAG”, the binding signal was 8940 fluorescence intensity (a.u.).

Take “TTCGACTTCCTCGTCTCGTTGAGCGCGACTTCGGCTTGATCGGAGTCACCTAGTGCAG”: the binding signal was 10300 fluorescence intensity (a.u.).

For the sequence “GGTGTTTGACCCCAAGACTCCACTCCATCTCTCTCCATGTCGGAGTCACCTAGTGCAG”, the binding signal was 11600 fluorescence intensity (a.u.).

For “CTTATTATTTCTCTCTTCTTACTCTATCGCCGCTAGAGAACGGAGTCACCTAGTGCAG”, the binding signal is 8500 fluorescence intensity (a.u.).

As for “GGTTGGGTACGGGAAAAATATAATATATACCGGAAGCAGACGGAGTCACCTAGTGCAG”, the binding signal is 8140 fluorescence intensity (a.u.).

Regarding “CCAATTTAACTCTGTTTTTGTCACTTTGCTTATTTGACTCCGGAGTCACCTAGTGCAG”, the binding signal was 12200 fluorescence intensity (a.u.).

For the sequence “CCCACCGTAGACTAGTCAATCCATCCATCCATCCGCCCACCGGAGTCACCTAGTGCAG”, the binding signal was 8720 fluorescence intensity (a.u.).

On to “ACGGCTCCACGATATATCTCTCGCTTGATAGCTTTTCCAACGGAGTCACCTAGTGCAG”, for which the binding signal was 9160 fluorescence intensity (a.u.).

On to “GATATGCACAGAGCAGGTAGTGTTTGACAACTTTGTTTCTCGGAGTCACCTAGTGCAG”, for which the binding signal was 9490 fluorescence intensity (a.u.).

With “CTTTAGTTAAAGTCAAAGTGCTTCAAGTTTGACTAAGTTTCGGAGTCACCTAGTGCAG”, the binding signal is 9150 fluorescence intensity (a.u.).

Take “TCACTGCCTCACCAACCAGTCACCGCCCTTATCCTTTTTCCGGAGTCACCTAGTGCAG”: the binding signal was 10900 fluorescence intensity (a.u.).

On to “ACTCTCATTCCTTTTCTAATTTTGGATTTTATTTTATTTTCGGAGTCACCTAGTGCAG”, for which the binding signal is 15000 fluorescence intensity (a.u.).

Regarding “AATGCGGTGTGTGTTATACTCTAGTTAGTCATATGATCCACGGAGTCACCTAGTGCAG”, the binding signal was 9330 fluorescence intensity (a.u.).

For the sequence “GAGGGAGTATTATCTTCTGAACATATGTTTGACCATTGGACGGAGTCACCTAGTGCAG”, the binding signal is 8940 fluorescence intensity (a.u.).

Regarding “CTGAGTTCCCATTAATTGAAGTTTCCATTTCTGTTATTTTCGGAGTCACCTAGTGCAG”, the binding signal was 9680 fluorescence intensity (a.u.).

For the sequence “TTCGCATCTCAACCAATCACAATCTTCTACCACTTAATTCCGGAGTCACCTAGTGCAG”, the binding signal is 8750 fluorescence intensity (a.u.).

“ATACCATCATCCTATATTTTATTAATATCTTACAACTAACCGGAGTCACCTAGTGCAG”: the binding signal is 8870 fluorescence intensity (a.u.).

The values above are taken from article PMC7819943, “Rice protein-binding microarrays: a tool to detect cis-acting elements near promoter regions in rice”.
